PubChem BioAssay AID1259405 | NCATS | 2018

Purpose: 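Silenced genes that increase secreted GFP made by CHO cells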 (primary screen)
System: Chinese hamster CHO-K1 ovary cells with stable secreted eGFP expression
Reagent: single siRNA against mouse genes, 0.8 pmol siRNA per well (2 µl of 400 nM stock)
Timing: 3 days
Measurement: 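Percent of the per-plate non-targeting control median for intracellular GFP per well by laser scanning cytometry and for cell viability by ATP luminescence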
Direction: GFP, % of control: higher = more GFP per well, higher productivity; viability (ATP), % of control: higher = more viable cells (more ATP)
Call rule: 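Called active when intracellular GFP, relative to negative control, is at or above 120%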
Shown is a random part of about 50,000 reagents tested. Of all reagents, about 4,000 (8%) were called active. 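Mouse siRNA library applied to hamster cells; one well for each siRNA.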 The numbers tell different reagents against one gene apart. Reagent sequences are not shown.

Prl (prolactin) #1
- GFP, % of control: 40.2
- viability (ATP), % of control: 69.7
- outcome: inactive

Prl (prolactin) #2
- GFP, % of control: 52.5
- viability (ATP), % of control: 69
- outcome: inactive

Prl (prolactin) #3
- GFP, % of control: 108
- viability (ATP), % of control: 112
- outcome: inactive

Ppy (pancreatic polypeptide) #1
- GFP, % of control: 55.3
- viability (ATP), % of control: 84.5
- outcome: inactive

Ppy (pancreatic polypeptide) #2
- GFP, % of control: 63.1
- viability (ATP), % of control: 78.5
- outcome: inactive

Ppy (pancreatic polypeptide) #3
- GFP, % of control: 60.2
- viability (ATP), % of control: 63.1
- outcome: inactive

Asf1a (anti-silencing function 1A histone chaperone) #1
- GFP, % of control: 51.8
- viability (ATP), % of control: 39.4
- outcome: inactive

Asf1a (anti-silencing function 1A histone chaperone) #2
- GFP, % of control: 65.9
- viability (ATP), % of control: 76.8
- outcome: inactive

Asf1a (anti-silencing function 1A histone chaperone) #3
- GFP, % of control: 107
- viability (ATP), % of control: 81.3
- outcome: inactive

Or4c10 (olfactory receptor family 4 subfamily C member 10) #1
- GFP, % of control: 62.2
- viability (ATP), % of control: 50.3
- outcome: inactive

Or4c10 (olfactory receptor family 4 subfamily C member 10) #2
- GFP, % of control: 55.3
- viability (ATP), % of control: 42.7
- outcome: inactive

Or4c10 (olfactory receptor family 4 subfamily C member 10) #3
- GFP, % of control: 43.7
- viability (ATP), % of control: 122
- outcome: inactive

Slc25a3 #1
- GFP, % of control: 124
- viability (ATP), % of control: 84.4
- outcome: active

Slc25a3 #2
- GFP, % of control: 90.1
- viability (ATP), % of control: 85.4
- outcome: inactive

Slc25a3 #3
- GFP, % of control: 43.6
- viability (ATP), % of control: 66.2
- outcome: inactive

Or6c1b (olfactory receptor family 6 subfamily C member 1B) #1
- GFP, % of control: 216
- viability (ATP), % of control: 80.8
- outcome: active

Or6c1b (olfactory receptor family 6 subfamily C member 1B) #2
- GFP, % of control: 29.1
- viability (ATP), % of control: 52.2
- outcome: inactive

Or6c1b (olfactory receptor family 6 subfamily C member 1B) #3
- GFP, % of control: 118
- viability (ATP), % of control: 73.3
- outcome: inactive

Prss30 (serine protease 30) #1
- GFP, % of control: 67.5
- viability (ATP), % of control: 85.1
- outcome: inactive

Prss30 (serine protease 30) #2
- GFP, % of control: 55.9
- viability (ATP), % of control: 74.8
- outcome: inactive

Prss30 (serine protease 30) #3
- GFP, % of control: 73.6
- viability (ATP), % of control: 94
- outcome: inactive

Dhrs3 (dehydrogenase/reductase 3) #1
- GFP, % of control: 80.2
- viability (ATP), % of control: 81.2
- outcome: inactive

Dhrs3 (dehydrogenase/reductase 3) #2
- GFP, % of control: 78.3
- viability (ATP), % of control: 82.2
- outcome: inactive

Dhrs3 (dehydrogenase/reductase 3) #3
- GFP, % of control: 61
- viability (ATP), % of control: 44.9
- outcome: inactive

Limited to “GFP, % of control”, for 6 of the entries above:
Slc25a3 #1 = 124
Slc25a3 #2 = 90.1
Slc25a3 #3 = 43.6
Or6c1b (olfactory receptor family 6 subfamily C member 1B) #1 = 216
Or6c1b (olfactory receptor family 6 subfamily C member 1B) #2 = 29.1
Or6c1b (olfactory receptor family 6 subfamily C member 1B) #3 = 118

Additional reagents follow:
Hoxa1 (homeobox A1) #1
- GFP, % of control: 68.8
- viability (ATP), % of control: 105
- outcome: inactive

Hoxa1 (homeobox A1) #2
- GFP, % of control: 153
- viability (ATP), % of control: 111
- outcome: active

Hoxa1 (homeobox A1) #3
- GFP, % of control: 48.4
- viability (ATP), % of control: 71.6
- outcome: inactive

Aig1 (androgen-induced 1) #1
- GFP, % of control: 50
- viability (ATP), % of control: 57.5
- outcome: inactive

Aig1 (androgen-induced 1) #2
- GFP, % of control: 50.9
- viability (ATP), % of control: 65.4
- outcome: inactive

Aig1 (androgen-induced 1) #3
- GFP, % of control: 92.9
- viability (ATP), % of control: 86.9
- outcome: inactive

Or6f2 (olfactory receptor family 6 subfamily F member 2) #1
- GFP, % of control: 79.2
- viability (ATP), % of control: 42.6
- outcome: inactive

Or6f2 (olfactory receptor family 6 subfamily F member 2) #2
- GFP, % of control: 76.8
- viability (ATP), % of control: 77.1
- outcome: inactive

Or6f2 (olfactory receptor family 6 subfamily F member 2) #3
- GFP, % of control: 87.6
- viability (ATP), % of control: 81
- outcome: inactive

Lhpp #1
- GFP, % of control: 107
- viability (ATP), % of control: 85.2
- outcome: inactive

Lhpp #2
- GFP, % of control: 82.1
- viability (ATP), % of control: 75.3
- outcome: inactive

Lhpp #3
- GFP, % of control: 78.6
- viability (ATP), % of control: 92.7
- outcome: inactive

Rita1 (RBPJ interacting and tubulin associated 1) #1
- GFP, % of control: 99.9
- viability (ATP), % of control: 86.9
- outcome: inactive

Rita1 (RBPJ interacting and tubulin associated 1) #2
- GFP, % of control: 88.9
- viability (ATP), % of control: 53.5
- outcome: inactive

Rita1 (RBPJ interacting and tubulin associated 1) #3
- GFP, % of control: 127
- viability (ATP), % of control: 113
- outcome: active

Actg2 (actin, gamma 2, smooth muscle, enteric) #1
- GFP, % of control: 63.9
- viability (ATP), % of control: 51.6
- outcome: inactive

Actg2 (actin, gamma 2, smooth muscle, enteric) #2
- GFP, % of control: 90.2
- viability (ATP), % of control: 77.9
- outcome: inactive

Actg2 (actin, gamma 2, smooth muscle, enteric) #3
- GFP, % of control: 105
- viability (ATP), % of control: 63.2
- outcome: inactive

Lrit1 #1
- GFP, % of control: 45.7
- viability (ATP), % of control: 45.1
- outcome: inactive

Lrit1 #2
- GFP, % of control: 64.9
- viability (ATP), % of control: 83.7
- outcome: inactive

Lrit1 #3
- GFP, % of control: 95
- viability (ATP), % of control: 93.2
- outcome: inactive

Nprl2 (NPR2 like, GATOR1 complex subunit) #1
- GFP, % of control: 135
- viability (ATP), % of control: 109
- outcome: active

Nprl2 (NPR2 like, GATOR1 complex subunit) #2
- GFP, % of control: 84.1
- viability (ATP), % of control: 95.1
- outcome: inactive

Nprl2 (NPR2 like, GATOR1 complex subunit) #3
- GFP, % of control: 72.2
- viability (ATP), % of control: 94.2
- outcome: inactive

Plek2 (pleckstrin 2) #1
- GFP, % of control: 37.3
- viability (ATP), % of control: 66.6
- outcome: inactive

Plek2 (pleckstrin 2) #2
- GFP, % of control: 35
- viability (ATP), % of control: 45.4
- outcome: inactive

Plek2 (pleckstrin 2) #3
- GFP, % of control: 63.7
- viability (ATP), % of control: 59.5
- outcome: inactive

Nav3 (neuron navigator 3) #1
- GFP, % of control: 52.6
- viability (ATP), % of control: 62.7
- outcome: inactive

Nav3 (neuron navigator 3) #2
- GFP, % of control: 63.8
- viability (ATP), % of control: 84.4
- outcome: inactive

Nav3 (neuron navigator 3) #3
- GFP, % of control: 97.7
- viability (ATP), % of control: 75.2
- outcome: inactive
